Substitutions are numbered along the chain they refer to. Names may count otherwise. These are yes or no findings as the source states them, for the method shown. In cells and extracts the contact can be indirect. Some results given as binding are weak or reduced against the parent protein; the word gives no strength. Tags and fused reporters may be left off the sequences shown.
T1: Act1 in IL-17RB-deficient MEFs reconstituted with Myc-tagged IL-17RB (mouse (cells are mouse embryonic fibroblasts)) (UniProt Q8N7N6)
T1 sequence (looked up): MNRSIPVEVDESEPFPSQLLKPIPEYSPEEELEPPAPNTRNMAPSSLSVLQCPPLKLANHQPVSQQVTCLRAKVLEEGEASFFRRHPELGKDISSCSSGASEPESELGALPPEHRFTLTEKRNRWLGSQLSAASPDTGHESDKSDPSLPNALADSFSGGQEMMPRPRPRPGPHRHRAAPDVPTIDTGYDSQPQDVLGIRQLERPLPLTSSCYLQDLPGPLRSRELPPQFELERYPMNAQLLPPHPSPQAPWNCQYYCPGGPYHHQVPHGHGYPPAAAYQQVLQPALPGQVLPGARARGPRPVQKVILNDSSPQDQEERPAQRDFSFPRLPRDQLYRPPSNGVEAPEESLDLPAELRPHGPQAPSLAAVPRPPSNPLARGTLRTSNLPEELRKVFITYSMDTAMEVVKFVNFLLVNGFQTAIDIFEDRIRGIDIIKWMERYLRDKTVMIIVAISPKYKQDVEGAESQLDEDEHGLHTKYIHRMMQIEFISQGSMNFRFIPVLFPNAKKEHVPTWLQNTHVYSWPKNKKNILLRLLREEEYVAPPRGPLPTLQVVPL

T2: V5-tagged human IL-17RA, wild type (human) (UniProt Q96F46)
T2 sequence (looked up): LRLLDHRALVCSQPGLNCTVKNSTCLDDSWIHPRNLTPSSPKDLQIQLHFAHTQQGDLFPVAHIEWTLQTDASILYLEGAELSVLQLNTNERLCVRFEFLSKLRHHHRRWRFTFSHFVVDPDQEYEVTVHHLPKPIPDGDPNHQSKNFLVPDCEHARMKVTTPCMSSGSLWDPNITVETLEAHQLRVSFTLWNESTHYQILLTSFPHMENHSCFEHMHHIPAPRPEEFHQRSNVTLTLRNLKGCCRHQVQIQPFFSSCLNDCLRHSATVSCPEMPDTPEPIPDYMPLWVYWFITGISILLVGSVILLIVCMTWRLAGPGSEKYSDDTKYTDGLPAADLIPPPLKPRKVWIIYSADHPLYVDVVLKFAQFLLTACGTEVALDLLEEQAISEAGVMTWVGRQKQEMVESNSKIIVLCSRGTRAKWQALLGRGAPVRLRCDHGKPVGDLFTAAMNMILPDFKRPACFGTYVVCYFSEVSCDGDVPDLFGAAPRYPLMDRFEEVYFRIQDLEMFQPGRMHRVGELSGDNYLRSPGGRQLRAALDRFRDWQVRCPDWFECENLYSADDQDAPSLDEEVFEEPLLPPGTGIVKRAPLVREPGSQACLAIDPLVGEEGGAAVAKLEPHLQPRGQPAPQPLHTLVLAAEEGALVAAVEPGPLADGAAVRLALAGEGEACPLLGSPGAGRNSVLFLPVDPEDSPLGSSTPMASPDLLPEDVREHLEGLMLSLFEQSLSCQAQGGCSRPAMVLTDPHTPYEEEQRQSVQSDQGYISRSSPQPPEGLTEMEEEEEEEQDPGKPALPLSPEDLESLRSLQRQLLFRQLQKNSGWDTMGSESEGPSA

B1: Myc-tagged mouse IL-17RB point mutant Q366D (receptor, UniProt Q9JIP3 18-499, looked up)
chain: REPTIQCGSETGPSPEWMVQHTLTPGDLRDLQVELVKTSVAAEEFSILMNISWILRADASIRLLKATKICVSGKNNMNSYSCVRCNYTEAFQSQTRPSGGKWTFSYVGFPVELSTLYLISAHNIPNANMNEDSPSLSVNFTSPGCLNHVMKYKKQCTEAGSLWDPDITACKKNEKMVEVNFTTNPLGNRYTILIQRDTTLGFSRVLENKLMRTSVAIPVTEESEGAVVQLTPYLHTCGNDCIRREGTVVLCSETSAPIPPDDNRRMLGGWLPLFLVLLVAVWVLAAGIYLTWRQGRSTKTSFPISTMLLPLIKVLVVYPSEICFHHTVCRFTDFLQNYCRSEVILEKWDKKKIAEMGPVQWLTTQKQAADKVVFLLPSDVPTLCDSACGHNEGSARENSQDLFPLAFNLFCSDFSSQTHLHKYLVVYLGGADLKGDYNALSVCPQYHLMKDATAFHTELLKATQSMSVKKRSQACHDSCSPL
B2: Myc-tagged mouse IL-17RB point mutant S411R (receptor, UniProt Q9JIP3 18-499, looked up)
chain: B1 chain with D349Q, S394R
B3: Myc-tagged mouse IL-17RB point mutant S337A (receptor, UniProt Q9JIP3 18-499, looked up)
chain: B1 chain with S320A, D349Q
B4: Myc-tagged mouse IL-17RB point mutant G410D (receptor, UniProt Q9JIP3 18-499, looked up)
chain: B1 chain with D349Q, G393D
B5: Myc-tagged mouse IL-17RB point mutant S416R (receptor, UniProt Q9JIP3 18-499, looked up)
chain: B1 chain with D349Q, S399R
B6: Myc-tagged mouse IL-17RB point mutant P421R (receptor, UniProt Q9JIP3 18-499, looked up)
chain: B1 chain with D349Q, P404R
B7: Myc-tagged mouse IL-17RB point mutant E409R (receptor, UniProt Q9JIP3 18-499, looked up)
chain: B1 chain with D349Q, E392R
B8: Myc-tagged mouse IL-17RB point mutant N415D (receptor, UniProt Q9JIP3 18-499, looked up)
chain: B1 chain with D349Q, N398D
B9: Myc-tagged mouse IL-17RB point mutant E414R (receptor, UniProt Q9JIP3 18-499, looked up)
chain: B1 chain with D349Q, E397R
B10: Myc-tagged mouse IL-17RB point mutant E338A (receptor, UniProt Q9JIP3 18-499, looked up)
chain: B1 chain with E321A, D349Q
B11: Myc-tagged mouse IL-17RB point mutant Q417R (receptor, UniProt Q9JIP3 18-499, looked up)
chain: B1 chain with D349Q, Q400R
B12: Myc-tagged mouse IL-17RB point mutant D418V (receptor, UniProt Q9JIP3 18-499, looked up)
chain: B1 chain with D349Q, D401V
B13: Myc-tagged mouse IL-17RB point mutant I339A (receptor, UniProt Q9JIP3 18-499, looked up)
chain: B1 chain with I322A, D349Q
B14: Myc-tagged mouse IL-17RB point mutant W378R (receptor, UniProt Q9JIP3 18-499, looked up)
chain: B1 chain with D349Q, W361R
B15: FLAG-tagged mouse Act1 (mAct1), wild type (protein, UniProt Q8N7N6 1-555, looked up)
chain: T1 sequence (looked up)

biological target: T1, Act1 in IL-17RB-deficient MEFs reconstituted with Myc-tagged IL-17RB (mouse (cells are mouse embryonic fibroblasts)); experiment: co-immunoprecipitation in reconstituted IL-17RB-deficient MEFs (IP anti-Myc)

binding | Binder
binds | B1
binds | B2
binds | B3
binds | B4
binds | B5
binds | B6
binds | B7
binds | B8
binds | B9
binds | B10
binds | B11
binds | B12
binds | B13
binds | B14

biological target: T2, V5-tagged human IL-17RA, wild type (human); experiment: co-immunoprecipitation, HeLa cells (IP anti-V5, blot anti-FLAG)

binding | Binder
binds | B15
